## Screening data, single-dose tests

Amino acid sequences for entries named in this document (tags omitted). Residues count along the entry.
UniProt P9WPC5, whole entry: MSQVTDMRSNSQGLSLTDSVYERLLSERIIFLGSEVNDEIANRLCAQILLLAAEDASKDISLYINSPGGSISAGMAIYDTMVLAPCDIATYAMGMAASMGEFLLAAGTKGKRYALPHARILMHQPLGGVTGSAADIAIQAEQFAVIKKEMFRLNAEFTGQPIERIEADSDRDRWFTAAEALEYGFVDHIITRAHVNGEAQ
UniProt P9WPC3, whole entry partner: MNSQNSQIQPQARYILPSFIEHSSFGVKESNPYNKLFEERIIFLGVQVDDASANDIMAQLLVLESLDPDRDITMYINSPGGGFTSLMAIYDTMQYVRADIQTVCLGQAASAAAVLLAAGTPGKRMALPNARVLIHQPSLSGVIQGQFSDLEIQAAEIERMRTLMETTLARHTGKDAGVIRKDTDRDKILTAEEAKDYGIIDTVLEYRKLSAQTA
UniProt P9WNZ1, whole entry: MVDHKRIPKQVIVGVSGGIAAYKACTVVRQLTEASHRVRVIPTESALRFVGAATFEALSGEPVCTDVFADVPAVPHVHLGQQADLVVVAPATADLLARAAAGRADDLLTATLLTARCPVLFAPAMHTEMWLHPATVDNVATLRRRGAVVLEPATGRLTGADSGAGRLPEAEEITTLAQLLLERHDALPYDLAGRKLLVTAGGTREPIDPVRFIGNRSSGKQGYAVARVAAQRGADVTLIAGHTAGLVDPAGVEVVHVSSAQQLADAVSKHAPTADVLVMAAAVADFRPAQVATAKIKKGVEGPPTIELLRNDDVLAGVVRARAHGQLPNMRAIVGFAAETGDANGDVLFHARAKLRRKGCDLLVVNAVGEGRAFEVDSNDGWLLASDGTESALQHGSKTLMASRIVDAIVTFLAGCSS
UniProt Q8IDJ8, 1-583: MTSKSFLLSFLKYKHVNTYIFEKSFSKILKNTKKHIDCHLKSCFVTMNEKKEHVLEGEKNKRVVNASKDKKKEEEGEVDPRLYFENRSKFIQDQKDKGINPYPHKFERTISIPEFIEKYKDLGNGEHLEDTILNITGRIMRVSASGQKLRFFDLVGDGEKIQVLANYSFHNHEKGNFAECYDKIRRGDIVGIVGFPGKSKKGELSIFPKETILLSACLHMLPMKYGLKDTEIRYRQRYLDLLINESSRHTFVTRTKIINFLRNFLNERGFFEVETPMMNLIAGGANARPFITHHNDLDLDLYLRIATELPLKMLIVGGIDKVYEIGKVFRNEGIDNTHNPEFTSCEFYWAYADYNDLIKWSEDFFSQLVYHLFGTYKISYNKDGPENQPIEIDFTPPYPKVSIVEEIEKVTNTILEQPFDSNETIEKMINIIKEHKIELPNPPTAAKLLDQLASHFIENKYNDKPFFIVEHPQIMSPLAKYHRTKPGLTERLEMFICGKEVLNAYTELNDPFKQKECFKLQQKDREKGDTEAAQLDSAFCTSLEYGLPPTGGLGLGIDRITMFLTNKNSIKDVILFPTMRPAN

Measurements from “University of Dundee, Small-Polar-MMV Screening Library” (2021), ChEMBL document CHEMBL3988442.

ClpP1P2: 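Protease assay of ClpP1P2, read by the AMC dye that it sets free. Target: ClpP1P2, Mycobacterium tuberculosis (UniProt P9WPC5 and UniProt P9WPC3). Concentration: 50 µM. Direction is inferred from only a few compounds that gave an IC50; most scored high, so higher reads as stronger inhibition. Most other retested compounds had strongly negative values. Size under these conditions: about 69,000 compounds, about 10 of them at 50% or above in at least one test.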
CoaBC: 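Enzyme assay of CoaBC with a phosphate dye (Biomol Green) read at 650 nm. Target: Coenzyme A biosynthesis protein CoaBC, Mycobacterium tuberculosis (UniProt P9WNZ1). Concentration: 30 µM. Direction is inferred from only a few compounds that gave an IC50; most scored high, so higher reads as stronger inhibition. Most strong results did not repeat in a second test. Of about 67,000 compounds tested this way, about 40 (0.06%) reached 50% or more in at least one test.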
PfKRS1: 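Lysine-tRNA ligase, Plasmodium falciparum 3D7 (UniProt Q8IDJ8). Enzyme assay of the cytosolic lysyl-tRNA synthetase in 384-well plates, read by luminescence. Concentration: 30 µM. Direction is inferred from only a few compounds that gave an IC50; most scored high, so higher reads as stronger inhibition. About 69,000 compounds were tested under these conditions; 0.071% (about 49) showed 50% or more at least once.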

Each number is a percent effect as filed. How 0% and 100% were set is not recorded. Most values in the screen are low, and negative values occur. Compounds were drawn at random from those tested, without regard to their results. A dash means the value is not listed here; it may have been measured.

compound	ClpP1P2	CoaBC	PfKRS1
CCc1nc(CN2CCCN(Cc3nnc(C4CC4)o3)CC2)no1	-27.94	6.789	0.3823
COCC1CN(C(=O)Cc2ccccn2)Cc2ncnn2C1 (stereo unspecified)	2.431	-3.426	5.392
c1cncc(-c2ccc3c(c2)CCC32CCN(Cc3ccco3)CC2)c1	11.51	4.713	2.663
O=C(CCNCc1cccc(O)c1)N1CCc2sccc2C1	6.565	4.507	-0.6078
Cc1c(I)cccc1C(=O)NCc1nnc[nH]1	-6.295	2.564	2.419
O=C(NC1CCCN(c2ccc(OC(F)F)cc2)C1)c1cnc[nH]1 (stereo unspecified)	7.978	-	0.9038
CCn1cc(CN2CCCN(C(=O)C3(C#N)CCCCC3)CC2)cn1	8.972	2.073	0.4646
Cc1c(NC(=O)NCC(C)N2CCOCC2)cccc1OC(F)F (stereo unspecified)	0.6004	1.863	1.361
CS(=O)(=O)N1C[C@@H]2COC[C@]2(C(=O)NCCc2cccs2)C1	4.596	0.9852	11.52
O=C(Nc1ccc(F)cc1)NC1(CCO)CCOCC1	-1.054	-3.226	4.379
COCCC(Cc1cccc(Br)c1)C(N)=O (stereo unspecified)	-2.888	4.717	3.433
O=C1CC2(CCCNC2)C(=O)N1Cc1ccccc1 (stereo unspecified)	18.74	-0.2418	-3.913
CCCN1CCC(c2nc3ccc(-c4cccc(F)c4)cn3n2)CC1	-9.358	3.094	2.793
COc1ccc(CNC(=O)CCN2C[C@@H](C)[C@](O)(C3CC3)C2)cc1	-11.18	-12.5	4.234
CC(c1nc(C2CC2)no1)N1CCN(CC(=O)N2CCOCC2)CC1 (stereo unspecified)	-0.7038	-2.768	6.547
Cn1nc(C2CCNCC2)c2c(C(=O)NC3CC3)cc(C3CC3)nc21	-21.94	6.053	0.5369
O=C(CC1CCCCC1)N1CCC(c2ncc3c(n2)CCNC3)CC1	-5.505	1.611	4.13
Cc1ccc(S(=O)(=O)Nc2c(C)nn(C)c2C)cc1C	11.6	-1.815	2.131
Cc1ccc(NCc2ccc(C#N)cc2)c(CN(C)C)c1	-4.345	-34.09	-5.272
CNC(=O)[C@@H]1CN(C(=O)COC)C[C@H]1c1ccnc(N2CCCC2)n1	-19.92	-1.826	-0.1959
CCOCC1CN(CCOc2ccc(Cl)cc2)Cc2c1cnn2C (stereo unspecified)	-6.574	3.738	3.837
NCCO[C@H]1C[C@@H](O)C12CCN(C1Cc3ccccc3C1)CC2	-1.879	3.215	3.211
COc1cc(CN2CCC(O)(c3ccc(C)cn3)CC2)cc(Cl)c1OC	-10.13	-22.43	0.04919
Cc1cc(C(=O)N2CCn3cc(CN4CCCCC4)nc3C2)no1	-7.887	1.75	2.463
CCCN1C[C@H](NC(=O)c2ccccc2F)[C@@H](c2ccc(OC)cc2)C1	-8.842	0	-0.2688
CSc1ccc(Cl)c(C(=O)N2CCCC(CNS(C)(=O)=O)C2)c1 (stereo unspecified)	19.27	2.372	-7.478
c1ccc(-c2nc(CN3CCCC3Cn3cccn3)no2)cc1 (stereo unspecified)	2.83	4	2.836
CCN1CCN(C2CCN(Cc3cc(C)on3)CC2)C1=O	-4.531	-4.113	0.8414
CC(=O)NCCC(=O)NC1(c2ccc(Cl)c(Cl)c2)CC1	14.7	6.638	2.864
CCCN(C)C(=O)c1cc(Br)cc(S(=O)(=O)N2CCOCC2)c1F	12.57	-	3.483
COc1ccc2[nH]c(=O)c(CN(C)C(C)c3ccccn3)cc2c1 (stereo unspecified)	-13.34	1.515	9.316
CCN(CC1CCOCC1)C(=O)CCNC(=O)c1ccccc1F	2.098	6.4	3.267
CCN(CC)c1nc(C)cc(C(=O)Nc2ccc(Br)cc2)n1	-5.392	-2.41	-0.4119
Cc1nc(CN(C)C2CCCN(Cc3noc(C4CC4)n3)C2)oc1C (stereo unspecified)	16.79	1.434	-1.257
Cn1cc(-c2cnc(N3CCCC3)nc2)cc1C(=O)O	-12.14	7.66	-0.277
Cc1nsc(N2CCN(CC(=O)NCc3ccc(F)cc3)CC2)n1	-6.06	9.328	2.87
CSCCCN1CCCC1c1noc(C(C)C)n1 (stereo unspecified)	-25.23	5.45	-1.584
CCN(C(=O)CS(=O)(=O)c1cc(OC)c(OC)cc1C)C1CC1	-1.483	3.851	11.58
O=C(NCCC1=CCCCC1)c1cc(-c2ccc(O)cc2)n[nH]1	14.74	-7.2	-3.798
Cc1ccc(CN2Cc3nnn(C)c3C(COCC3CC3)C2)o1 (stereo unspecified)	-9.003	-0.8157	6.34

For reference, 5 entries once more:

compound,ClpP1P2,CoaBC,PfKRS1
CC(=O)NCCC(=O)NC1(c2ccc(Cl)c(Cl)c2)CC1,14.7,6.638,2.864
Cc1c(I)cccc1C(=O)NCc1nnc[nH]1,-6.295,2.564,2.419
COc1ccc(CNC(=O)CCN2C[C@@H](C)[C@](O)(C3CC3)C2)cc1,-11.18,-12.5,4.234
Cc1nc(CN(C)C2CCCN(Cc3noc(C4CC4)n3)C2)oc1C (stereo unspecified),16.79,1.434,-1.257
O=C(NC1CCCN(c2ccc(OC(F)F)cc2)C1)c1cnc[nH]1 (stereo unspecified),7.978,-,0.9038